# Measurements: the supplement of paper PMC8728848
# The other results are listed elsewhere or left out.
# Experiments:
# Test in all cases: glycan array binding signal (z-score within array); higher = stronger binding
# Conditions in all cases: glycan notation: IUPAC condensed, linker removed
# [1] = target: Fuc(a1-2)[Gal(a1-3)]Gal(b1-3)GlcNAc(b1-6)GalNAc
# How it was run: (§1)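 Arrays were curated from the Consortium for Functional Glycomics database, 3228 in total, and kept only where the protein sequence was available. Binding is expressed as a within-array Z-score. This score was averaged across arrays of the same protein sequence at different concentrations or buffers and across linkers, and negative values can be read as non-binding.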
# [2] = target: Fuc(a1-2)[Gal(a1-3)]Gal(b1-4)Glc
# How it was run: as §1
# [3] = target: Fuc(a1-2)[Gal(a1-3)]Gal(b1-4)GlcNAc
# How it was run: as §1
# [4] = target: Fuc(a1-2)[Gal(a1-3)]Gal(b1-4)GlcNAc(b1-2)Man
# How it was run: as §1
# [5] = target: Fuc(a1-2)[Gal(a1-3)]Gal(b1-4)GlcNAc(b1-2)Man(a1-3)[Fuc(a1-2)[Gal(a1-3)]Gal(b1-4)GlcNAc(b1-2)Man(a1-6)]Man(b1-4)GlcNAc(b1-4)GlcNAc
# How it was run: as §1
# [6] = target: Fuc(a1-2)[Gal(a1-3)]Gal(b1-4)GlcNAc(b1-2)Man(a1-3)[Fuc(a1-2)[Gal(a1-3)]Gal(b1-4)GlcNAc(b1-2)Man(a1-6)]Man(b1-4)GlcNAc(b1-4)[Fuc(a1-6)]GlcNAc
# How it was run: as §1
# [7] = target: Fuc(a1-2)[Gal(a1-3)]Gal(b1-4)GlcNAc(b1-3)GalNAc
# How it was run: as §1
# [8] = target: Fuc(a1-2)[Gal(a1-3)]Gal(b1-4)GlcNAc(b1-3)[Fuc(a1-2)[Gal(a1-3)]Gal(b1-4)GlcNAc(b1-6)]GalNAc
# How it was run: as §1
# [9] = target: Fuc(a1-2)[Gal(a1-3)]Gal(b1-4)GlcNAc(b1-6)GalNAc
# How it was run: as §1
# [10] = target: Fuc(a1-2)[Gal(a1-3)]Gal(b1-4)[Fuc(a1-3)]Glc
# How it was run: as §1
# [11] = target: Fuc(a1-2)[Gal(a1-3)]Gal(b1-4)[Fuc(a1-3)]GlcNAc
# How it was run: as §1
# [12] = target: Fuc(a1-2)[Gal(a1-3)]Gal(b1-4)[Fuc(a1-3)]GlcNAc(b1-3)GalNAc
# How it was run: as §1
# [13] = target: Fuc(a1-2)[Gal(a1-4)]Gal(b1-4)GlcNAc
# How it was run: as §1
# [14] = target: Fuc(a1-2)[GalNAc(a1-3)]Gal
# How it was run: as §1
# [15] = target: Fuc(a1-2)[GalNAc(a1-3)]Gal(b1-3)GalNAc(a1-3)[Fuc(a1-2)]Gal(b1-4)GlcNAc
# How it was run: as §1
# [16] = target: Fuc(a1-2)[GalNAc(a1-3)]Gal(b1-3)GalNAc(b1-3)Gal(a1-4)Gal(b1-4)Glc
# How it was run: as §1
# [17] = target: Fuc(a1-2)[GalNAc(a1-3)]Gal(b1-3)GlcNAc
# How it was run: as §1
# [18] = target: Fuc(a1-2)[GalNAc(a1-3)]Gal(b1-3)GlcNAc(b1-2)Man(a1-3)[Fuc(a1-2)[GalNAc(a1-3)]Gal(b1-3)GlcNAc(b1-2)Man(a1-6)]Man(b1-4)GlcNAc(b1-4)GlcNAc
# How it was run: as §1
# [19] = target: Fuc(a1-2)[GalNAc(a1-3)]Gal(b1-3)GlcNAc(b1-2)Man(a1-3)[Fuc(a1-2)[GalNAc(a1-3)]Gal(b1-3)GlcNAc(b1-2)Man(a1-6)]Man(b1-4)GlcNAc(b1-4)[Fuc(a1-6)]GlcNAc
# How it was run: as §1
# [20] = target: Fuc(a1-2)[GalNAc(a1-3)]Gal(b1-3)GlcNAc(b1-3)GalNAc
# How it was run: as §1
# [21] = target: Fuc(a1-2)[GalNAc(a1-3)]Gal(b1-3)GlcNAc(b1-6)GalNAc
# How it was run: as §1
# [22] = target: Fuc(a1-2)[GalNAc(a1-3)]Gal(b1-4)Glc
# How it was run: as §1
# [23] = target: Fuc(a1-2)[GalNAc(a1-3)]Gal(b1-4)GlcNAc
# How it was run: as §1
# [24] = target: Fuc(a1-2)[GalNAc(a1-3)]Gal(b1-4)GlcNAc(b1-2)Man
# How it was run: as §1
# [25] = target: Fuc(a1-2)[GalNAc(a1-3)]Gal(b1-4)GlcNAc(b1-2)Man(a1-3)[Fuc(a1-2)[GalNAc(a1-3)]Gal(b1-4)GlcNAc(b1-2)Man(a1-6)]Man(b1-4)GlcNAc(b1-4)GlcNAc
# How it was run: as §1
# [26] = target: Fuc(a1-2)[GalNAc(a1-3)]Gal(b1-4)GlcNAc(b1-2)Man(a1-3)[Fuc(a1-2)[GalNAc(a1-3)]Gal(b1-4)GlcNAc(b1-2)Man(a1-6)]Man(b1-4)GlcNAc(b1-4)[Fuc(a1-6)]GlcNAc
# How it was run: as §1
# [27] = target: Fuc(a1-2)[GalNAc(a1-3)]Gal(b1-4)GlcNAc(b1-3)Gal(b1-4)GlcNAc
# How it was run: as §1
# [28] = target: Fuc(a1-2)[GalNAc(a1-3)]Gal(b1-4)GlcNAc(b1-3)Gal(b1-4)GlcNAc(b1-3)Gal(b1-4)GlcNAc
# How it was run: as §1
# [29] = target: Fuc(a1-2)[GalNAc(a1-3)]Gal(b1-4)GlcNAc(b1-3)GalNAc
# How it was run: as §1
# [30] = target: Fuc(a1-2)[GalNAc(a1-3)]Gal(b1-4)GlcNAc(b1-3)[Fuc(a1-2)[GalNAc(a1-3)]Gal(b1-4)GlcNAc(b1-6)]GalNAc
# How it was run: as §1
binder,measurement,setting,value
"MFG-E8 (Mus musculus), P21956 (protein) MQVSRVLAALCGMLLCASGLFAASGDFCDSSLCLNGGTCLTGQDNDIYCLCPEGFTGLVCNETERGPCSPNPCYNDAKCLVTLDTQRGDIFTEYICQCPVGYSGIHCETETNYYNLDGEYMFTTAVPNTAVPTPAPTPDLSNNLASRCSTQLGMEGGAIADSQISASSVYMGFMGLQRWGPELARLYRTGIVNAWTASNYDSKPWIQVNLLRKMRVSGVMTQGASRAGRAEYLKTFKVAYSLDGRKFEFIQDESGGDKEFLGNLDNNSLKVNMFNPTLEAQYIKLYPVSCHRGCTLRFELLGCELHGCSEPLGLKNNTIPDSQMSASSSYKTWNLRAFGWYPHLGRLDNQGKINAWTAQSNSAKEWLQVDLGTQRQVTGIITQGARDFGHIQYVASYKVAHSDDGVQWTVYEEQGSSKVFQGNLDNNSHKKNIFEKPFMARYVRVLPVSWHNRITLRLELLGC",glycan array binding signal (z-score),[1],0.488
same,glycan array binding signal (z-score),[2],0.449
same,glycan array binding signal (z-score),[3],-0.338
same,glycan array binding signal (z-score),[4],-0.357
same,glycan array binding signal (z-score),[5],0.572
same,glycan array binding signal (z-score),[6],-0.278
same,glycan array binding signal (z-score),[7],0.138
same,glycan array binding signal (z-score),[8],-0.052
same,glycan array binding signal (z-score),[9],1.55
same,glycan array binding signal (z-score),[10],-0.425
same,glycan array binding signal (z-score),[11],-0.585
same,glycan array binding signal (z-score),[12],2.33
same,glycan array binding signal (z-score),[13],-0.24
same,glycan array binding signal (z-score),[14],-0.22
same,glycan array binding signal (z-score),[15],-0.14
same,glycan array binding signal (z-score),[16],-0.286
same,glycan array binding signal (z-score),[17],-0.413
same,glycan array binding signal (z-score),[18],0.42
same,glycan array binding signal (z-score),[19],0.372
same,glycan array binding signal (z-score),[20],-0.12
same,glycan array binding signal (z-score),[21],-0.456
same,glycan array binding signal (z-score),[22],-0.78
same,glycan array binding signal (z-score),[23],0.409
same,glycan array binding signal (z-score),[24],1.1
same,glycan array binding signal (z-score),[25],-0.642
same,glycan array binding signal (z-score),[26],0.43
same,glycan array binding signal (z-score),[27],-0.277
same,glycan array binding signal (z-score),[28],0.121
same,glycan array binding signal (z-score),[29],0.039
same,glycan array binding signal (z-score),[30],-0.258

# Reformatted as tab-separated lines: entries from further up
binder	measurement	setting	value
MFG-E8 (Mus musculus), P21956 (protein) MQVSRVLAALCGMLLCASGLFAASGDFCDSSLCLNGGTCLTGQDNDIYCLCPEGFTGLVCNETERGPCSPNPCYNDAKCLVTLDTQRGDIFTEYICQCPVGYSGIHCETETNYYNLDGEYMFTTAVPNTAVPTPAPTPDLSNNLASRCSTQLGMEGGAIADSQISASSVYMGFMGLQRWGPELARLYRTGIVNAWTASNYDSKPWIQVNLLRKMRVSGVMTQGASRAGRAEYLKTFKVAYSLDGRKFEFIQDESGGDKEFLGNLDNNSLKVNMFNPTLEAQYIKLYPVSCHRGCTLRFELLGCELHGCSEPLGLKNNTIPDSQMSASSSYKTWNLRAFGWYPHLGRLDNQGKINAWTAQSNSAKEWLQVDLGTQRQVTGIITQGARDFGHIQYVASYKVAHSDDGVQWTVYEEQGSSKVFQGNLDNNSHKKNIFEKPFMARYVRVLPVSWHNRITLRLELLGC	glycan array binding signal (z-score)	[1]	0.488
same	glycan array binding signal (z-score)	[15]	-0.14
